Source: the supplement of paper PMC10849652
Some of the results follow.

Sequences of proteins named here, by UniProt entry; tags and fusion partners are left off. A change or cut given only in a name is not applied to a line headed by its entry.
UniProt Q9UHR5: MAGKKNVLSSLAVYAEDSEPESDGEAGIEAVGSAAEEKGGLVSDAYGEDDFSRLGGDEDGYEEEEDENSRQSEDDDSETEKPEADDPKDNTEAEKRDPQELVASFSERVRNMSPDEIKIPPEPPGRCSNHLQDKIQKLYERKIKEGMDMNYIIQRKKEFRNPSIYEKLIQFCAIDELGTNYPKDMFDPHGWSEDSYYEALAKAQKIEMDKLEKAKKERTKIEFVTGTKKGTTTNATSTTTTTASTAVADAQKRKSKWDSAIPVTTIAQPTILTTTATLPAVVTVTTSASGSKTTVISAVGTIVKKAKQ
UniProt Q99584: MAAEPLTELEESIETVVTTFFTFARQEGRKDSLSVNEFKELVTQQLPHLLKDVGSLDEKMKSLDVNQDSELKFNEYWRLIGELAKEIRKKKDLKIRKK
UniProt Q6IQ49: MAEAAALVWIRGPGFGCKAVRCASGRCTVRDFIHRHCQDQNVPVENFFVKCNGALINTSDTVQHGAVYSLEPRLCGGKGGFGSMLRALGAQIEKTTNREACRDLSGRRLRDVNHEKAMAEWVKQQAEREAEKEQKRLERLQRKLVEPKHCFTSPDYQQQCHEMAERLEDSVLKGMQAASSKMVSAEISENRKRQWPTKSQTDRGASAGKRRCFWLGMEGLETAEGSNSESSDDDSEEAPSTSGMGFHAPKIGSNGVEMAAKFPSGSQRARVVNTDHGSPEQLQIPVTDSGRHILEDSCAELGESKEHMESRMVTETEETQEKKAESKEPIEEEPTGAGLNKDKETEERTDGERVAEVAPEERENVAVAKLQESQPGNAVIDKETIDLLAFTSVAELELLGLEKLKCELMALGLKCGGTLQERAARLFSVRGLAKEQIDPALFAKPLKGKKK
UniProt Q9NRG7: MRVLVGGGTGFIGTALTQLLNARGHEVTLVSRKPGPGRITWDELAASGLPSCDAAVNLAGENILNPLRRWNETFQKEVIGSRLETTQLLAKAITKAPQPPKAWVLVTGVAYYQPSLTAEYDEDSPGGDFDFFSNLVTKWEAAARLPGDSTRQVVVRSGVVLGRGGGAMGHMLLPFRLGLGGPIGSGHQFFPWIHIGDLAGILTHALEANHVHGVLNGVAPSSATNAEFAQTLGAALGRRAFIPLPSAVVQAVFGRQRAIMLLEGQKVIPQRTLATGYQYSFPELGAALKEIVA
UniProt Q9Y512: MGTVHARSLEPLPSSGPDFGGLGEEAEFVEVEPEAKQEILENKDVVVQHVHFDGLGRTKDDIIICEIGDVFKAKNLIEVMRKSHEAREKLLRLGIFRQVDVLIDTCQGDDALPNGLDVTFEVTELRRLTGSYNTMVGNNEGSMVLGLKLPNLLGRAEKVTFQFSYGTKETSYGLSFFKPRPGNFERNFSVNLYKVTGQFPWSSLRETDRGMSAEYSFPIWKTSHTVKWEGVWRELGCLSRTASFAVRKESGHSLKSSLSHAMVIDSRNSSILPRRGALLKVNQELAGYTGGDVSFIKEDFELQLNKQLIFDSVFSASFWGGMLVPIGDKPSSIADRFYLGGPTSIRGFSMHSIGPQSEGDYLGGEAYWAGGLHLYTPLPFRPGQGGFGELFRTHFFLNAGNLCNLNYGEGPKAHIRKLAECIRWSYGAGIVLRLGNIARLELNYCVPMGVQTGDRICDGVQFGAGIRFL
UniProt Q14151: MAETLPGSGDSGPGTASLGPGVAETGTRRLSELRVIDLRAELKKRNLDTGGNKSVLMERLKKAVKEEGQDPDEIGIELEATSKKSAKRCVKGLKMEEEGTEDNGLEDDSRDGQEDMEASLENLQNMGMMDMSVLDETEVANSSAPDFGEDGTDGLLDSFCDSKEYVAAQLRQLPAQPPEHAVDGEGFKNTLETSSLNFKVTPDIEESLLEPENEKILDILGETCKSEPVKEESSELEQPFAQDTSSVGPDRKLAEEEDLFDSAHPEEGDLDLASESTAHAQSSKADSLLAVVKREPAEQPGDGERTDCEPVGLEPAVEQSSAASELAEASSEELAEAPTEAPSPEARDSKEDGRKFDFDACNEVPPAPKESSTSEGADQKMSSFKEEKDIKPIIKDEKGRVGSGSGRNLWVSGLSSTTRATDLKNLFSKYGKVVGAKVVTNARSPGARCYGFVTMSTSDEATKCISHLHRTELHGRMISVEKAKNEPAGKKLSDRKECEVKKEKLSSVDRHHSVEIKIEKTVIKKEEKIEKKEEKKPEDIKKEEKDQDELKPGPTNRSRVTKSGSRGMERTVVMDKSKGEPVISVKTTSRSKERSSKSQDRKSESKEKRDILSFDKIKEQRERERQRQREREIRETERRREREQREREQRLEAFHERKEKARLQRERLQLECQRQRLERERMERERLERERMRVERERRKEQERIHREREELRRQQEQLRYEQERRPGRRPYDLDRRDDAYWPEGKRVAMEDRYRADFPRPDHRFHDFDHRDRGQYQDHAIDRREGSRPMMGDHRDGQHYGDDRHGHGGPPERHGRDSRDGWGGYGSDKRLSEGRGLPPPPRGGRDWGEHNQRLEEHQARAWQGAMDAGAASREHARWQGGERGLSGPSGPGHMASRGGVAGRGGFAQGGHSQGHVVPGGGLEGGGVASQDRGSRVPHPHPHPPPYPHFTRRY
UniProt O75396: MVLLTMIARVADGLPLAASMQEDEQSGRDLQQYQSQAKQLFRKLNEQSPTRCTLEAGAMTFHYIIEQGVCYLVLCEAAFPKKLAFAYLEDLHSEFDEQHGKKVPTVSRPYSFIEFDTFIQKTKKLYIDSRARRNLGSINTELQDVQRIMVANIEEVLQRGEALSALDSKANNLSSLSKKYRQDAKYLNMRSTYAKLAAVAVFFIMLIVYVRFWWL
UniProt Q9NSI8: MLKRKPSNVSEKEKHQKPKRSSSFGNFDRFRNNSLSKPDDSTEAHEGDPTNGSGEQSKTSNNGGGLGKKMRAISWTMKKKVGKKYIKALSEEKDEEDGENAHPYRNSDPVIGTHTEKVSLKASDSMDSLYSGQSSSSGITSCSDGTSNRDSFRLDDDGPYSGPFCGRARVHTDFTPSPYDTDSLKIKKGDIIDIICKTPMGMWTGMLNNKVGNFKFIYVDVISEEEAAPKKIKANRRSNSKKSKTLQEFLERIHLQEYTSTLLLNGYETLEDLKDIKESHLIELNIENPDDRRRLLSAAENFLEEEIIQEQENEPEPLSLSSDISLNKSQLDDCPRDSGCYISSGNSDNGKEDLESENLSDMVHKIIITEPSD
UniProt Q8N488: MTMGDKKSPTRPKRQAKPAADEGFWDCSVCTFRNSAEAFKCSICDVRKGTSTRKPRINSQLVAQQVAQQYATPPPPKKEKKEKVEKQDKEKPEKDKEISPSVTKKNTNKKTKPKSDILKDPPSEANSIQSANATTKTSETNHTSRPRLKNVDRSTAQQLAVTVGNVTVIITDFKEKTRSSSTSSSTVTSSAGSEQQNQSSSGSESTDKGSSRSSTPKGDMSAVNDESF
UniProt Q7L4I2: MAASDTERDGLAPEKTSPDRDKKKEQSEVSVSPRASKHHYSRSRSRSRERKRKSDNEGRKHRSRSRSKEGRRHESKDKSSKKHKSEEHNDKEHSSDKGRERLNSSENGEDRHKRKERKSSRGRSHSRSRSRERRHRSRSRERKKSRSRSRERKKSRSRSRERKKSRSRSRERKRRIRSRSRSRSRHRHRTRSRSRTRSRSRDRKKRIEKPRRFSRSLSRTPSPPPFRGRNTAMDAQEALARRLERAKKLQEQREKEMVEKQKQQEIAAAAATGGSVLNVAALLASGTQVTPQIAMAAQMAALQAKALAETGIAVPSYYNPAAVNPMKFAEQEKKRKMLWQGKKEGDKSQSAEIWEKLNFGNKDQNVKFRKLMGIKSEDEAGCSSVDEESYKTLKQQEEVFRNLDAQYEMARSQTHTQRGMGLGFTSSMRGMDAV
UniProt O14521: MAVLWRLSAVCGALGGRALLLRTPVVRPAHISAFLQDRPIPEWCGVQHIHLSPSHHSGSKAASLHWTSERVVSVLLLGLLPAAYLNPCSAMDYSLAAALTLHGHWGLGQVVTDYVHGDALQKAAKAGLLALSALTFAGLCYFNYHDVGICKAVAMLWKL
UniProt Q01196, whole entry, looked up: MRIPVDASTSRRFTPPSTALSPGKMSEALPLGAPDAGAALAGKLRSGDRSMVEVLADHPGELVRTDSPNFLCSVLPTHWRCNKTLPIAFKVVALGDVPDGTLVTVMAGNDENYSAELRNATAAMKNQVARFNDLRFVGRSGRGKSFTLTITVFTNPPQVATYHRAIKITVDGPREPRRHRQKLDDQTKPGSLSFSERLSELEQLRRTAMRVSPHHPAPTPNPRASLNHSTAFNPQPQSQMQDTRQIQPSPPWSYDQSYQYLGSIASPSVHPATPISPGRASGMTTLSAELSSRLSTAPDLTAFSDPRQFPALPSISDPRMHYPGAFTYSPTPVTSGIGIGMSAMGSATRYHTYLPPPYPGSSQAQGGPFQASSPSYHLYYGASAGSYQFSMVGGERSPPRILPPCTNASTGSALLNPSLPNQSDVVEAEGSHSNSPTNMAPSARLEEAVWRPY
UniProt Q9NTJ5: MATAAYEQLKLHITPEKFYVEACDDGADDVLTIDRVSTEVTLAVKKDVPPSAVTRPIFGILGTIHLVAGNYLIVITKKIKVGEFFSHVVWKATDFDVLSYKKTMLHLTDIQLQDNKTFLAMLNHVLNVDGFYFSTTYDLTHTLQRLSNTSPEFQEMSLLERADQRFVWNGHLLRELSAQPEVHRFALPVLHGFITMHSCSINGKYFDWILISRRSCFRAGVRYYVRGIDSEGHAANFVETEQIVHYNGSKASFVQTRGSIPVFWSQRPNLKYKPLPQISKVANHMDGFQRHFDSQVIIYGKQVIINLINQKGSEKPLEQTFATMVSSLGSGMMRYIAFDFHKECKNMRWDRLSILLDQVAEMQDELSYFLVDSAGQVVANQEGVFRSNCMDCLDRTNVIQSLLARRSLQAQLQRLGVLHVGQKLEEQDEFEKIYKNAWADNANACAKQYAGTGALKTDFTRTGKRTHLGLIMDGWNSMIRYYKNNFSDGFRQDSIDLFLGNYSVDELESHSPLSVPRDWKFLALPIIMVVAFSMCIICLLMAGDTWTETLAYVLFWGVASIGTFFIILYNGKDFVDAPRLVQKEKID
UniProt O95104: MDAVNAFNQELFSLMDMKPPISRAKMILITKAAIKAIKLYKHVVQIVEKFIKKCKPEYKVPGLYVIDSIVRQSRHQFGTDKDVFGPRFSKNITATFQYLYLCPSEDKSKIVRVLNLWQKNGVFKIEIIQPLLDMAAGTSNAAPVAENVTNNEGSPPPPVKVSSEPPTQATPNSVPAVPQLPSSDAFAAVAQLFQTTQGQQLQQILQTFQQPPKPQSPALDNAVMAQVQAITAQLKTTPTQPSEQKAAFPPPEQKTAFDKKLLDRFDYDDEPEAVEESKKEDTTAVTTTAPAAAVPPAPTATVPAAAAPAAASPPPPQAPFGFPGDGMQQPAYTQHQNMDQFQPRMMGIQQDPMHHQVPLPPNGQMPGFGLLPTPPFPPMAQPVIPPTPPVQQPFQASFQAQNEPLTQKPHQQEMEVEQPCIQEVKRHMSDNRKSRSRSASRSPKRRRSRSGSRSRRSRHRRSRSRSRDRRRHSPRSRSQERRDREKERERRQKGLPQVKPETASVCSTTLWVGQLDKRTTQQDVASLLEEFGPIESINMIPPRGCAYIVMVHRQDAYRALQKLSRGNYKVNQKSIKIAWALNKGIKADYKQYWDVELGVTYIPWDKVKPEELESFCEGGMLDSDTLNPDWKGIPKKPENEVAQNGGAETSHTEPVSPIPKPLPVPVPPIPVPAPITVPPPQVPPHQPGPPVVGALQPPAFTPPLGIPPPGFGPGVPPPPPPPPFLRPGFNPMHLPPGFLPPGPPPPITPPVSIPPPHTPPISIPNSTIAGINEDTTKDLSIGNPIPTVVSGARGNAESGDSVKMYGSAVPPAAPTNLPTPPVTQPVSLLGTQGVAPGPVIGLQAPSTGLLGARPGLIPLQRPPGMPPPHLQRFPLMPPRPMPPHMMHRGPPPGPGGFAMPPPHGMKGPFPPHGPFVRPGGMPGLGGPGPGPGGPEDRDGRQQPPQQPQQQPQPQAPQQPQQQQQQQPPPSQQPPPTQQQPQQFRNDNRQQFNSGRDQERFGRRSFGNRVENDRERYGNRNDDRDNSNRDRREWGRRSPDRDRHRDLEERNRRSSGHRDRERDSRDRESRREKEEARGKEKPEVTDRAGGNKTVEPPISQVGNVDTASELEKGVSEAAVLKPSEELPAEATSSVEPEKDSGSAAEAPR
UniProt O00560: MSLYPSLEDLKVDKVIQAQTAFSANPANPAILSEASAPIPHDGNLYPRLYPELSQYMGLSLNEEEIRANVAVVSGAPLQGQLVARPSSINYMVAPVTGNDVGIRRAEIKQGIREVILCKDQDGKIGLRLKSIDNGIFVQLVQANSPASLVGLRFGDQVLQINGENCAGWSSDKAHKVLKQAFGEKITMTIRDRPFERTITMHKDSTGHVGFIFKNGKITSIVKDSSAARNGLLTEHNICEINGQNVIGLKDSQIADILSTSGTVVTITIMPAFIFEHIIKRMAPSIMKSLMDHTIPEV
UniProt Q13296: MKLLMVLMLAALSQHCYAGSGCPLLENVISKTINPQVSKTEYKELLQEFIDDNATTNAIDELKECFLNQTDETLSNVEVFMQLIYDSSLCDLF

What was measured:
Experiment in all cases: log2 fold change, soluble protein after heating vs DMSO (PISA); higher = thermal stabilisation; K562 cells, 10 uM, 30 min; active = over 0.2 and 3.5 SD of the protein, either way, in both replicates (recomputed)
[1] = compound: NC(=O)Nc1cc(-c2cccc(F)c2)sc1C(=O)N[C@H]1CCCNC1
Method in brief: (§1)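 Soluble protein was quantified by TMTpro 16plex LC-MS/MS after channel sums were equalised. It was obtained as the supernatant after 21,000xg for 90 min from pooled aliquots of K562 cells (2×10^6 cells/mL, 10 μM compound, 30 min) heated for 3 min across 48°C-58°C and extracted in PBS with 0.5% NP-40 at 4°C. Thermal stability values are relative to control samples and come from duplicates. They are given as log2 fold changes.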

[2] = compound: NC(=O)c1cnc(N[C@@H]2CCCC[C@@H]2N)nc1Nc1cccc(-n2nccn2)c1
Method in brief: as §1

[3] = compound: NC1(c2ccc(-c3nc4ccn5c(=O)[nH]nc5c4cc3-c3ccccc3)cc2)CCC1
Method in brief: as §1

[4] = compound: NCC(=O)Nc1ccc(-n2nc(C(F)(F)F)cc2-c2ccc3c(ccc4ccccc43)c2)cc1
Method in brief: as §1

[5] = compound: Nc1ccccc1NC(=O)c1ccc(CNC(=O)OCc2cccnc2)cc1 [entinostat]
Method in brief: as §1

[6] = compound: O=C(CCCCCCC(=O)Nc1ccccc1)NO [vorinostat]
Method in brief: as §1

[7] = compound: O=C(CCCCCCNC(=O)c1cnc(N(c2ccccc2)c2ccccc2Cl)nc1)NO [citarinostat]
Method in brief: as §1

[8] = compound: O=C(O)c1ccc2c(c1)nc(Nc1cccc(Cl)c1)c1ccncc12 [silmitasertib]
Method in brief: as §1

[9] = compound: O=C1NC(=O)C(c2cnc3ccccn23)=C1c1cn2c3c(cc(F)cc13)CN(C(=O)N1CCCCC1)CC2
Method in brief: as §1

[10] = compound: c1cc(OCCN2CCCCC2)cc(-c2n[nH]c3ccc(-c4nnc[nH]4)cc23)c1
Method in brief: as §1

Measured: log2 fold change

SAMHD1 (UniProt Q9Y3Z3)
inactive: [1] -0.01 | [2] -0.017 | [3] -0.033 | [4] 0.028 | [5] -0.004 | [6] 0.055 | [7] 0.003 | [8] -0.018 | [9] -0.029 | [10] 0.011

SAP30BP (UniProt Q9UHR5)
inactive: [1] -0.02 | [2] -0.003 | [3] 0.015 | [4] 0.007 | [5] 0.023 | [6] -0.061 | [7] 0.02 | [8] 0.032 | [9] -0.055 | [10] -0.079

S100A13 (UniProt Q99584)
inactive: [1] -0.02 | [2] -0.077 | [3] -0.061 | [4] -0.021 | [5] 0.011 | [6] 0.016 | [7] 0.008 | [8] -0.023 | [9] -0.044 | [10] -0.033

SDE2 (UniProt Q6IQ49)
inactive: [1] -0.029 | [2] -0.061 | [3] -0.032 | [4] -0.046 | [5] 0.005 | [6] 0.018 | [7] 0.077 | [8] 0.014 | [9] -0.062 | [10] 0.048

SDHA (UniProt P31040)
inactive: [1] 0.047 | [2] -0.034 | [3] -0.015 | [4] 0.028 | [5] 0.008 | [6] -0.01 | [7] 0.068 | [8] -0.033 | [9] -0.024 | [10] 0.03

RRP9 (UniProt O43818)
inactive: [1] 0 | [2] 0.053 | [3] 0.14 | [4] 0.08 | [5] -0.002 | [6] -0.035 | [7] 0.003 | [8] 0.069 | [9] 0.112 | [10] -0.073

SDR39U1 (UniProt Q9NRG7)
inactive: [1] -0.014 | [2] 0.095 | [3] 0.392 | [4] 0.518 | [5] -0.118 | [6] -0.077 | [7] 0.024 | [8] 0.162 | [9] 0.294 | [10] 0.265

RSPRY1 (UniProt Q96DX4)
inactive: [1] -0.054 | [2] 0.051 | [3] -0.104 | [4] 0.061 | [5] -0.016 | [6] -0.02 | [7] -0.075 | [8] 0.028 | [9] -0.072 | [10] -0.008

SART1 (UniProt O43290)
inactive: [1] 0.102 | [2] 0.074 | [3] 0.309 | [4] 0.12 | [5] -0.046 | [6] 0.031 | [7] -0.067 | [8] 0.176 | [9] 0.214 | [10] -0.198

SAMM50 (UniProt Q9Y512)
inactive: [1] -0.019 | [2] -0.009 | [3] -0.05 | [4] -0.012 | [5] 0 | [6] -0.03 | [7] 0.023 | [8] 0.023 | [9] -0.002 | [10] -0.038

RUVBL1 (UniProt Q9Y265)
inactive: [1] 0.004 | [2] 0.008 | [3] 0.036 | [4] 0.028 | [5] -0.06 | [6] -0.069 | [7] -0.024 | [8] -0.035 | [9] 0.022 | [10] -0.007

RTF1 (UniProt Q92541)
inactive: [1] -0.002 | [2] -0.04 | [3] -0.062 | [4] -0.052 | [5] 0.047 | [6] 0.057 | [7] 0.063 | [8] -0.008 | [9] -0.107 | [10] 0.017

SAFB2 (UniProt Q14151)
inactive: [1] 0.116 | [2] 0.084 | [3] 0.255 | [4] 0.043 | [5] -0.076 | [6] -0.016 | [7] -0.098 | [8] 0.119 | [9] 0.084 | [10] -0.038

SDHB (UniProt P21912)
inactive: [1] -0.006 | [2] 0.008 | [3] -0.008 | [4] 0.043 | [5] 0.003 | [6] -0.055 | [7] 0.012 | [8] -0.049 | [9] -0.011 | [10] 0.022

SART3, A0A499FI31
inactive: [1] -0.011 | [2] -0.105 | [3] -0.175 | [4] -0.054 | [5] 0.055 | [6] 0.1 | [7] 0.098 | [8] 0.114 | [9] -0.136 | [10] -0.02

SEC22B (UniProt O75396)
inactive: [1] 0.071 | [2] 0.031 | [3] -0.027 | [4] -0.02 | [5] 0.022 | [6] 0.013 | [7] 0.048 | [8] -0.037 | [9] -0.054 | [10] 0.018

SAMSN1 isoform 3 (UniProt Q9NSI8)
inactive: [1] -0.06 | [2] -0.067 | [3] -0.067 | [4] -0.028 | [5] 0.099 | [6] 0.009 | [7] 0.06 | [8] 0.063 | [9] -0.073 | [10] -0.025

Quoted from above (7 entries):
SAP30BP (UniProt Q9UHR5)
inactive: [1] -0.02 | [2] -0.003 | [3] 0.015 | [4] 0.007 | [5] 0.023 | [6] -0.061 | [7] 0.02 | [8] 0.032 | [9] -0.055 | [10] -0.079

S100A13 (UniProt Q99584)
inactive: [1] -0.02 | [2] -0.077 | [3] -0.061 | [4] -0.021 | [5] 0.011 | [6] 0.016 | [7] 0.008 | [8] -0.023 | [9] -0.044 | [10] -0.033

SDE2 (UniProt Q6IQ49)
inactive: [1] -0.029 | [2] -0.061 | [3] -0.032 | [4] -0.046 | [5] 0.005 | [6] 0.018 | [7] 0.077 | [8] 0.014 | [9] -0.062 | [10] 0.048

SDHA (UniProt P31040)
inactive: [1] 0.047 | [2] -0.034 | [3] -0.015 | [4] 0.028 | [5] 0.008 | [6] -0.01 | [7] 0.068 | [8] -0.033 | [9] -0.024 | [10] 0.03

RRP9 (UniProt O43818)
inactive: [1] 0 | [2] 0.053 | [3] 0.14 | [4] 0.08 | [5] -0.002 | [6] -0.035 | [7] 0.003 | [8] 0.069 | [9] 0.112 | [10] -0.073

SDR39U1 (UniProt Q9NRG7)
inactive: [1] -0.014 | [2] 0.095 | [3] 0.392 | [4] 0.518 | [5] -0.118 | [6] -0.077 | [7] 0.024 | [8] 0.162 | [9] 0.294 | [10] 0.265

RSPRY1 (UniProt Q96DX4)
inactive: [1] -0.054 | [2] 0.051 | [3] -0.104 | [4] 0.061 | [5] -0.016 | [6] -0.02 | [7] -0.075 | [8] 0.028 | [9] -0.072 | [10] -0.008

Following part.

RYBP (UniProt Q8N488)
inactive: [1] -0.015 | [2] 0.044 | [3] 0.04 | [4] 0.013 | [5] -0.011 | [6] -0.095 | [7] 0.021 | [8] 0.079 | [9] -0.053 | [10] -0.055

RSRC2 (UniProt Q7L4I2)
inactive: [1] -0.05 | [2] 0.111 | [3] -0.001 | [4] -0.019 | [5] -0.01 | [6] -0.029 | [7] 0.038 | [8] -0.13 | [9] 0.023 | [10] -0.034

SDHD (UniProt O14521)
inactive: [1] 0.016 | [2] 0.222 | [3] -0.076 | [4] 0.13 | [5] -0.123 | [6] 0.172 | [7] 0.107 | [8] 0.01 | [9] -0.053 | [10] -0.194

SBNO1 (UniProt A3KN83)
inactive: [1] 0.002 | [2] 0.019 | [3] -0.015 | [4] -0.028 | [5] 0.008 | [6] -0.021 | [7] 0.008 | [8] 0.039 | [9] -0.011 | [10] -0.004

RSF1 (UniProt Q96T23)
inactive: [1] -0.17 | [2] -0.078 | [3] -0.246 | [4] -0.198 | [5] 0.073 | [6] 0.028 | [7] -0.087 | [8] 0.04 | [9] -0.182 | [10] 0.081

RUNX1 isoform 8 (UniProt Q01196)
inactive: [1] -0.027 | [2] 0.03 | [3] -0.092 | [4] 0.187 | [5] -0.16 | [6] 0.321 | [7] -0.249 | [8] 0.119 | [9] 0.082 | [10] 0.051

SACM1L (UniProt Q9NTJ5)
inactive: [1] -0.045 | [2] 0 | [3] -0.102 | [4] -0.083 | [5] 0.016 | [6] 0.006 | [7] 0.044 | [8] 0.034 | [9] -0.068 | [10] -0.017

SCAF4 (UniProt O95104)
inactive: [1] -0.017 | [2] 0.016 | [3] -0.196 | [4] -0.025 | [5] -0.003 | [6] 0.028 | [7] -0.044 | [8] 0.025 | [9] -0.044 | [10] -0.121

SCAMP2 (UniProt O15127)
inactive: [1] -0.007 | [2] 0.168 | [3] 0.001 | [4] 0.029 | [5] -0.001 | [6] -0.027 | [7] 0.189 | [8] -0.002 | [9] 0.109 | [10] -0.065

SDCBP (UniProt O00560)
inactive: [1] -0.027 | [2] -0.017 | [3] -0.207 | [4] -0.189 | [5] 0.007 | [6] 0.063 | [7] -0.014 | [8] 0.073 | [9] 0.028 | [10] -0.08

SCPEP1 (UniProt Q9HB40)
active: [3] -0.314
inactive: [1] 0.036 | [2] 0.001 | [4] 0.008 | [5] 0.023 | [6] -0.037 | [7] -0.043 | [8] 0.003 | [9] 0.024 | [10] 0.022

SCGB2A2 (UniProt Q13296)
inactive: [1] 1.22 | [2] 0.505 | [3] -0.047 | [4] 0.536 | [5] 0.448 | [6] 0.269 | [7] -0.126 | [8] -0.189 | [9] 0.204 | [10] 0.464
